For at least one entry, the source does not settle the construct or the ends of the probe. At least one verdict rests on a figure or table, not on a statement of the authors.
Target: GATA3 WT (UniProt P23771)
Test: EMSA
Settings: 10 mM MgCl2, 1 uM DNA; residues 1-443

By UniProt entry, the sequences of proteins in these tests, tags left out. Where a name states a change or a piece, a line headed by the entry shows the natural chain unless it says otherwise.
UniProt P23771: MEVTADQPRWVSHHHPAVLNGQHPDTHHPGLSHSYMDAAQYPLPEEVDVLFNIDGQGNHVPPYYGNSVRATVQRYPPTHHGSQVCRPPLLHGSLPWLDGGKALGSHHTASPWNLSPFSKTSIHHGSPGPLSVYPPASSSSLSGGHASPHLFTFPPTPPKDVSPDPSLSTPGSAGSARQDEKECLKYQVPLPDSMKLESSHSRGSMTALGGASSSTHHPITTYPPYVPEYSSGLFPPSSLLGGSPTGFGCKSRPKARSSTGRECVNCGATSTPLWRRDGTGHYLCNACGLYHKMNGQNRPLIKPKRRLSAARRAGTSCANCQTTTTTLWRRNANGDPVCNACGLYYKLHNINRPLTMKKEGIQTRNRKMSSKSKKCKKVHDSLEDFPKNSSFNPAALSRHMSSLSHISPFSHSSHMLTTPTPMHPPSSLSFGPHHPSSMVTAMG

“AATGTCCATCTGATAAGACG (double strand) [GATA-DNA]”: binds.

— paper doi:10.1101/2023.05.02.538687
